Assay [1] addresses T1, GFP-ULK1 (Unc-51-like kinase 1, full-length) (human) (UniProt O75385).
T1 sequence: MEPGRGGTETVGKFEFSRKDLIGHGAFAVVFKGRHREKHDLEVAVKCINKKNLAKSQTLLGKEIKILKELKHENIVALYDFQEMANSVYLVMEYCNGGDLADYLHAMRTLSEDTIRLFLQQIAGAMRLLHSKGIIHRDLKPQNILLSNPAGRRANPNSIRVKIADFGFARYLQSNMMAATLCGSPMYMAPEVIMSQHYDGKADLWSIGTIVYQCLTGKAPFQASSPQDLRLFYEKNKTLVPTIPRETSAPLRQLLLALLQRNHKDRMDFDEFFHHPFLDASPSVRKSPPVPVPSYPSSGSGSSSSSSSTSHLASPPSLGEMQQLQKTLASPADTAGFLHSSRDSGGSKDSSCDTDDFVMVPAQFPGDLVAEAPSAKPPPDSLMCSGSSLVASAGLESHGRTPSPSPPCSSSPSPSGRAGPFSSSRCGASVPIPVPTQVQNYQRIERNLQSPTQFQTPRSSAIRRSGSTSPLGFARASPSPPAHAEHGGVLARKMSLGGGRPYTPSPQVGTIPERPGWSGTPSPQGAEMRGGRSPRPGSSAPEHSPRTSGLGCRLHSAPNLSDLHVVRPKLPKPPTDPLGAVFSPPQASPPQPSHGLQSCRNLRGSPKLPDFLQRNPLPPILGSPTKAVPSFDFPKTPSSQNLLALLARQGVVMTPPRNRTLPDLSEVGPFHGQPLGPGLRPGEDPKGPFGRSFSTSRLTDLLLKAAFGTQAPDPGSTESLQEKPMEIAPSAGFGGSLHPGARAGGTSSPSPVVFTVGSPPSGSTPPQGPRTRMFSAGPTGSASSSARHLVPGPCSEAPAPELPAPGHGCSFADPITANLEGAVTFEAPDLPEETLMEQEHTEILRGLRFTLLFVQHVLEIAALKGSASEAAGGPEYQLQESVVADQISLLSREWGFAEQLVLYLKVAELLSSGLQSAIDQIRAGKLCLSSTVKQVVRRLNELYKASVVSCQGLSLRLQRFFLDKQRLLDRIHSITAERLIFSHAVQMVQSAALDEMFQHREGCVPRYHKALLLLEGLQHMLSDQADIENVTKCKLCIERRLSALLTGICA
Nature of the assay: affinity purification with mass spectrometry; co-immunopurification of inducible GFP-ULK1 from Flp-In T-REx 293 cells and mass spectrometry.

By UniProt entry, the sequences of proteins in these tests, tags left out.
UniProt O14744: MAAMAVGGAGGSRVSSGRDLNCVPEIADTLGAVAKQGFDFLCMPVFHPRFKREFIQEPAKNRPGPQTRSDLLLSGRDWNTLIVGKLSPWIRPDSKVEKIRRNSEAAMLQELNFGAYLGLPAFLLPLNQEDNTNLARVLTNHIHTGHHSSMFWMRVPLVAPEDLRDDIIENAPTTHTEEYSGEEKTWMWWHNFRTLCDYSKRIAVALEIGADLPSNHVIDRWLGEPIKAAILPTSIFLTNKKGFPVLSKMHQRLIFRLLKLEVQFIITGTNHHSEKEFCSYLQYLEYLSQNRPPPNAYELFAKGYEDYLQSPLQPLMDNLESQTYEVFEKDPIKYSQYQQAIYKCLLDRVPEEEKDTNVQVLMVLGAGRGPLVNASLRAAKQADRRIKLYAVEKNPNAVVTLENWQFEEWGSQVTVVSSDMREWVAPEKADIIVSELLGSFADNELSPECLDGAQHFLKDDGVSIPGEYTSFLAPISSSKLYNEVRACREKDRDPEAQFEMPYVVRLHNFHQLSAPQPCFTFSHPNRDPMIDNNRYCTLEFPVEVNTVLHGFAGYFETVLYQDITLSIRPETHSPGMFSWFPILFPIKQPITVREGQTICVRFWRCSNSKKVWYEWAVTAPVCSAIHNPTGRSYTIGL
UniProt P62318: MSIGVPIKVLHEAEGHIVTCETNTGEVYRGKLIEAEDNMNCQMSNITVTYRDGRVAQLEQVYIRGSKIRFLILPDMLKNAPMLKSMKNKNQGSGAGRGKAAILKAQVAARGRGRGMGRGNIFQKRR
UniProt Q9BQA1: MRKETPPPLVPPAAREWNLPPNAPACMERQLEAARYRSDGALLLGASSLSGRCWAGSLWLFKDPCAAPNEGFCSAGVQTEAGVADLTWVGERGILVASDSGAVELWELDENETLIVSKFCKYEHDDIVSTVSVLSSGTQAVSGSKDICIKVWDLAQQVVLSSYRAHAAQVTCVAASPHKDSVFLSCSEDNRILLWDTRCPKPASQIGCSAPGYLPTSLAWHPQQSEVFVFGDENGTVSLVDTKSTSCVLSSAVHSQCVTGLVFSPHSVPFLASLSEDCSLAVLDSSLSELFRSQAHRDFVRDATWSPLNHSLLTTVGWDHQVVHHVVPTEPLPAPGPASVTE

The target of assay [2] is GST-pICln S193, 195, 197A (phospho-inactivating alanine mutant) (human) (UniProt P54105). The assay can be described thus: affinity purification with mass spectrometry; 5 μg GST-pICln wt or mutants incubated with 1 mg HEK293T S100 extract overnight at 4°C, glutathione sepharose 4B for 4 h, on-bead digestion, relative quantification by LC-MS/MS normalised to pICln; only the target purified.

Assay [3] concerns the target GST-pICln wild type (human) (UniProt P54105). Described as above.
For assay [4], the target named is GST-pICln S193, 195, 197D (phospho-mimicking aspartate mutant) (human) (UniProt P54105). The assay is described as above.

Results are given in words; binding and its absence hold for the method and conditions named. In cells and extracts the contact can be indirect. A yes stands for co-enrichment or nearness to the bait. Other partners may have been found. For some assays here: Where a sequence is shown, tags or fusion partners need not be part of it.

From PMC8216288 come the findings set out here.

Regarding “Protein arginine N-methyltransferase 5 (PRMT5), endogenous (from UniProt O14744 1-637) (enzyme)”, in assay [1], the binding result is “binds”.
As to “SmD2, endogenous (from UniProt P62316 1-118)”, the binding result in assay [2] and in assay [3] was “binds” in each case.
On to “SmD3, endogenous (from UniProt P62318 1-126)”, for which the binding entry in assay [2], in assay [4] and in assay [3] was “binds” each time.
Turning to “chloride conductance regulatory protein (pICln), endogenous (from UniProt P54105 1-237)”, the binding entry in assay [1] is “binds”.
In the case of “methylosome protein 50 (MEP50/WD45), endogenous (from UniProt Q9BQA1 1-342)”, the binding result in assay [1] is “binds”.
